PubChem BioAssay AID504784 | Drosophila RNAi Screening Center – 2011

Assay: 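Search for regulators of lipid droplet storage in oleate-fed fly cells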 (primary screen)
Cells: Drosophila Kc167 embryonic cells
Reagent: long dsRNA against Drosophila genes, about 250 ng dsRNA per well
Time to read-out: 4 days
Treatment: cells fed 400 µM oleic acid bound to BSA
Read-out: 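Microscope images give a droplet-to-nucleus area ratio, taken as log and converted to a screen-wide B-score; higher values mean greater lipid storage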
Direction: droplet/nuclear area B-score: higher = more stored lipid (overstorage)
The deposit covers about 17,000 reagents; this is a random part of those that have a named target and a result. 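Each column is one replicate's B-score; the combined score over replicates was not deposited, so single values may mislead.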 A plus sign joins genes that one reagent is predicted to hit. Further read-outs or replicates are left out here.

| Gene | dsRNA | droplet/nuclear area B-score, replicate 1 | droplet/nuclear area B-score, replicate 2 |
| --- | --- | --- | --- |
| CG11159 | DRSC06050 | 0.639 | -0.502 |
| CG2765 | DRSC04315 | -0.158 | -0.739 |
| LysS (Lysozyme S) | DRSC08677 | 1.09 | 0.192 |
| CG5107 | DRSC15716 | 0.705 | -0.688 |
| Ravus | DRSC15126 | 0.363 | -2.85 |
| sotv + CG10731 | DRSC05930 | -0.0176 | -0.164 |
| sotv + CG10731 | DRSC05997 | 0.031 | 0.04 |
| Ilp5 (Insulin-like peptide 5) | DRSC08998 | 0.247 | -2.25 |
| l(2)05714 (lethal (2) 05714) | DRSC03118 | -1.29 | 2.82 |
| CG32547 | DRSC19263 | 0.401 | 0.757 |
| CG32547 | DRSC19474 | – | -2.26 |
| CG32547 | DRSC19626 | -2.14 | -1.14 |
| eIF2Bgamma (eukaryotic translation initiation factor 2B subunit gamma) | DRSC07100 | 1.37 | -0.956 |
| Abd-B (Abdominal B) | DRSC14098 | -1.71 | -0.0951 |
| Abd-B (Abdominal B) | DRSC14337 | -1.64 | 0.913 |
| T48 (Transcript 48) | DRSC16878 | -0.857 | 2.44 |
| ORY (Occludin-Related Y) | DRSC22883 | 2.67 | -0.572 |
| CG4597 | DRSC10432 | -0.805 | -0.859 |
| Alp6 (Alkaline phosphatase 6) | DRSC06710 | -0.284 | -1.46 |
| Act5C (Actin 5C) | DRSC17723 | -1.72 | -2.76 |
| CheB93a (Chemosensory protein B 93a) | DRSC15044 | -0.812 | -0.0113 |
| boil (boilerman) | DRSC17872 | 0.00419 | 0.857 |
| Etfb (Electron transfer flavoprotein beta subunit) | DRSC16324 | 0.318 | – |
| rib (ribbon) | DRSC07021 | -0.138 | 0.381 |
| CG14194 | DRSC19549 | 1.08 | 0.731 |
| MtnA (Metallothionein A) | DRSC21588 | 0.0265 | -1.38 |
| Kdm2 (Lysine demethylase 2) | DRSC14286 | 0.0344 | 13.8 |
| kek5 (kekkon 5) | DRSC19438 | 0.0663 | 0.935 |
| CG16978 | DRSC02553 | -0.742 | 1.34 |
| AdamTS-A (ADAM metallopeptidase with thrombospondin type 1 motif A) | DRSC14992 | -0.0631 | -0.0128 |
| AdamTS-A (ADAM metallopeptidase with thrombospondin type 1 motif A) | DRSC15966 | 0.359 | 1.83 |
| CG15446 | DRSC20518 | 1.04 | -0.0395 |
| kek4 (kekkon 4) | DRSC03220 | -0.202 | 0.103 |
| CG13060 | DRSC09943 | -0.739 | -0.00354 |
| CG14247 | DRSC14742 | -0.846 | 0.763 |
| CG34447 | DRSC00741 | -0.895 | -0.364 |
| CG14971 | DRSC08430 | -1.57 | 0.668 |
| Mal-A5 (Maltase A5) | DRSC07232 | 0.0712 | 0.0717 |
| hb (hunchback) | DRSC16963 | 1.95 | -0.473 |
| CG14053 | DRSC17908 | 0.59 | 0.0429 |
| BuGZ (Bub3 interacting GLEBS and Zinc finger domain protein) | DRSC02642 | -2.56 | -1.1 |
| BuGZ (Bub3 interacting GLEBS and Zinc finger domain protein) | DRSC02643 | -0.204 | -0.0156 |
| pasi1 (pasiflora 1) | DRSC16299 | 0.0701 | 1.62 |
| pasi1 (pasiflora 1) | DRSC22385 | 0.485 | -0.78 |
| CG34210 | DRSC04579 | 0.244 | -2.16 |
| CG32214 | DRSC09613 | -0.157 | -1.95 |
| Grp170 (Grp170 co-chaperone) | DRSC18524 | 2.59 | 0.685 |
| CG14787 | DRSC18606 | -1.27 | -0.284 |
| CG4259 | DRSC00645 | -0.503 | 0.56 |
| shps (sheepish) | DRSC14614 | -0.897 | 0.111 |
| tra (transformer) | DRSC11405 | -0.124 | -0.468 |
| Pdzd8 (PDZ domain containing 8) | DRSC19355 | -0.691 | -0.872 |
| CG9346 | DRSC04542 | -2 | -1.54 |
| CG10561 | DRSC02068 | -2.29 | -0.379 |
| CG15549 | DRSC15087 | 0.702 | 0.408 |
| RpS21 (Ribosomal protein S21) | DRSC00833 | 0.995 | -0.0717 |
